# According to PubChem BioAssay AID1487 (National Center for Advancing Translational Sciences (NCATS), 2009):
# The list shows a part of the results. These are further read-outs of the screen, such as a control signal, another cell line or another target. No call is given for them. The list favours compounds with an active or inconclusive main result. Words in brackets tell the shape of the fitted curve; partial curves, single points and poor fits give uncertain potencies.
# Assay: qHTS Assay for Modulators of Lamin A Splicing
# Conditions: HeLa LMNA splicing GFP/RFP minigene ratio, 48 h
# Method in brief: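 S3 HeLa stable clones carrying a lamin A-EGFP splicing minigene plus DsRed2 were seeded at 600 cells/well in Opti-MEM with 2% FBS, pin-dosed and incubated 48 h at 37°C. Acumen cytometry (488 nm) gave the GFP/RFP total-intensity ratio.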
# [1] = measured here: RFP viability control channel
# [2] = measured here: GFP splicing reporter channel
Structure (SMILES),AC50 [1],AC50 [2]
Cc1ccc(S(=O)(=O)Nc2nc(C)cc(N/N=C/c3ccc(O)cc3)n2)cc1,"25.1 µM [rising, single point]",
Cc1ccc(C2CC(c3cccs3)=NN2C(=O)CSC2=NN3CCCC(=O)N=C3S2)cc1 (stereo unspecified),"12.6 µM [rising, partial curve, poor fit]",
COc1ccc(C[C@H](N)C(=O)N[C@@H]2[C@H](O)[C@H](n3cnc4c(N(C)C)ncnc43)O[C@@H]2CO)cc1,"1.58 µM [falling, full curve]","0.224 µM [falling, full curve]"
CCCC(=O)Nc1nc(-c2ccccc2)ns1,"25.1 µM [rising, single point]","17.8 µM [rising, single point]"
O=C(N/N=C\c1ccc(Cl)s1)c1cccs1,"31.6 µM [rising, single point]",
Cc1ccc(NCC(=O)N/N=C/c2ccc(OC(=O)c3ccco3)cc2)cc1,,"31.6 µM [rising, single point]"
CC(=O)NC1=NN(C(C)=O)C2(CCCC2)S1,,"0.0158 µM [falling, full curve, poor fit]"
O=C(Cc1ccccc1F)NCC1(N2CCOCC2)CCCCC1,"2.82 µM [rising, partial curve, poor fit]","0.126 µM [rising, partial curve, poor fit]"
CC(C)(C)N/N=C/c1cc(Cl)cc([N+](=O)[O-])c1O,"12.6 µM [rising, single point]",
Cc1ccc(Cl)cc1NC(=O)COCc1cc(-c2ccco2)on1,"0.02 µM [falling, full curve, poor fit]",
CCCC(c1nnnn1Cc1ccco1)N1CCN(c2cc(Cl)ccc2C)CC1 (stereo unspecified),,"35.5 µM [rising, single point]"
O=C1c2cccc3c(O)ccc(c23)C(=O)N1Cc1ccccc1,"10 µM [falling, partial curve]","7.94 µM [falling, partial curve]"
CCCN(Cc1nc(-c2ccc(Cl)cc2)no1)CC1CCCO1 (stereo unspecified),"0.501 µM [rising, partial curve, poor fit]",
O=C(CC(=O)c1ccccc1O)c1cccc(F)c1,"10 µM [rising, partial curve]",
CCn1cc(CN2CCN(CCc3ccccc3)C(CCO)C2)c(C)n1 (stereo unspecified),"0.0178 µM [falling, full curve, poor fit]",
CC(C)NC(=O)CCn1nc(-c2ccc(Cl)cc2)c2ccccc2c1=O,"0.0631 µM [rising, full curve, poor fit]","0.112 µM [rising, full curve]"

# Another view of two compounds above:
Structure (SMILES)	AC50 [1]	AC50 [2]
CCCC(=O)Nc1nc(-c2ccccc2)ns1	25.1 µM [rising, single point]	17.8 µM [rising, single point]
CC(C)NC(=O)CCn1nc(-c2ccc(Cl)cc2)c2ccccc2c1=O	0.0631 µM [rising, full curve, poor fit]	0.112 µM [rising, full curve]
